From article PMC7819943, “Rice protein-binding microarrays: a tool to detect cis-acting elements near promoter regions in rice”
This is one part of the list.

By UniProt entry, the sequences of proteins in these tests, tags left out.
UniProt Q0JBA9, entry or part of it: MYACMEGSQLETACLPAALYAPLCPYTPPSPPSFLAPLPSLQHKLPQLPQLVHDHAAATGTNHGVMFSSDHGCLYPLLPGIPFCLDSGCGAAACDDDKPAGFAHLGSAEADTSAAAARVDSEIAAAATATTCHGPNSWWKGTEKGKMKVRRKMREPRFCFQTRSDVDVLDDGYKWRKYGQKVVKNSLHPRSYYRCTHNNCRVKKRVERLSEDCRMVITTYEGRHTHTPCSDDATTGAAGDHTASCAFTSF

Target: OsWRKY34 (Oryza sativa, UniProt Q0JBA9 1-250)
Assay: protein-binding microarray (RPBM); PBS, 2% BSA, 51.3 ng/ul salmon testes DNA, 50 uM zinc acetate, 200 nM TF, 25 C, 1 h; high values mean tight binding
Settings: protein: recombinant; tags: N-terminal polyhistidine and DsRed monomer fusion (pET32a); label: CyDye5-dUTP incorporated in the synthesized complementary strand; 3' TTTTT single-stranded linker to array surface; dsDNA, one strand shown
Method in brief: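 An Axon 4000B scanner gave the binding signal as per-feature fluorescence intensity in arbitrary units. This followed washing of a custom Agilent array that had been incubated for 1 h at 25 °C with 200 nM protein in PBS, 2% BSA, salmon testes DNA and 50 µM zinc acetate. The proteins were transcription factors fused at the N-terminus to polyhistidine and DsRed, expressed in E. coli BL21-CodonPlus and purified on Ni–NTA.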

Sequence	binding signal
TTTCGAATGTACTTTCCTATGATTATGTTCTACAAAGGTGCGGAGTCACCTAGTGCAG	8440 fluorescence intensity (a.u.)
CTCCTGATCCTCTGCTCATCGTAGAAATCGCGATCGCCATCGGAGTCACCTAGTGCAG	11300 fluorescence intensity (a.u.)
TCACATTGTAACACACAGGCACTTTTGCTAGACCAAACAACGGAGTCACCTAGTGCAG	8040 fluorescence intensity (a.u.)
CCGGGACGTGTGCCGCCGCTTAAGCCCGCTCTTTATACGTCGGAGTCACCTAGTGCAG	9690 fluorescence intensity (a.u.)
GCCGTTCCTGGCCCCGCCGCCGCCGCCGCCACCGGGCCCGCGGAGTCACCTAGTGCAG	8830 fluorescence intensity (a.u.)
ATAACTGCACCACACGCGCTTACTCATCTCTCTCAACACGCGGAGTCACCTAGTGCAG	12000 fluorescence intensity (a.u.)
GTACCTTCGACGCTTCGCCTTGTCAGTCACTGTCCCCTTCCGGAGTCACCTAGTGCAG	8790 fluorescence intensity (a.u.)
TGTGTTTTTTTCCTTTGGGTGTGTGGTACTCTGTTGTATCCGGAGTCACCTAGTGCAG	10500 fluorescence intensity (a.u.)
AGTACTTGCCCTTTCCGTAGCGTGATGGTTGCGTTGGGTTCGGAGTCACCTAGTGCAG	8810 fluorescence intensity (a.u.)
TTCCGTGTACAACTTTGACTGTCCGTCTTATATAAAATTTCGGAGTCACCTAGTGCAG	9770 fluorescence intensity (a.u.)
TTGACAGCGGCGTTCTTCATTGCTGGTTTCTTAATACAATCGGAGTCACCTAGTGCAG	8080 fluorescence intensity (a.u.)
ATCTGGTCTCTGCTGCATGCATGGATTTGATCACCATTTACGGAGTCACCTAGTGCAG	8980 fluorescence intensity (a.u.)
CATCTTACCTTACGTCCACCGCATCTCATCCTTTGCTGTTCGGAGTCACCTAGTGCAG	12200 fluorescence intensity (a.u.)
TGTTGTGTGTTAGTTGTGGTGGTAGCATTTTTTCCTGGTACGGAGTCACCTAGTGCAG	13000 fluorescence intensity (a.u.)
TTTATTTGCGTTTAGGTCCTCGTCTGGACCTGGCTGCGATCGGAGTCACCTAGTGCAG	8500 fluorescence intensity (a.u.)
ATGCTGCATTTCATTTTGTTTTTGTTTTTTTTTTCATTTCCGGAGTCACCTAGTGCAG	8820 fluorescence intensity (a.u.)
GGGCAGAGATACAGTGTATTCATCGTGGTCATATGACCTCCGGAGTCACCTAGTGCAG	9790 fluorescence intensity (a.u.)
ATTGATCTATCGTTTTTATCGTTTATTTGCCGATTGTTTCCGGAGTCACCTAGTGCAG	13000 fluorescence intensity (a.u.)
TACCCTGTTTCATTTTGGGTTTAGGATCTATTGAACAGTTCGGAGTCACCTAGTGCAG	8060 fluorescence intensity (a.u.)
GCATCGCAATGCCTTCTTCACGTGCCTATTCTTGTTTCTTCGGAGTCACCTAGTGCAG	8330 fluorescence intensity (a.u.)
TCTCACGTACGCCTCCACTCGTTTCCTTCTCCCTTCGCTTCGGAGTCACCTAGTGCAG	8160 fluorescence intensity (a.u.)
CATTTCCGCGAGCTCTCTCTTCGGATATTTTCGCTCCCACCGGAGTCACCTAGTGCAG	8340 fluorescence intensity (a.u.)
GGACCGTTCACTAACCCCGTAACCGTGTCGCGCGCGCAACCGGAGTCACCTAGTGCAG	9590 fluorescence intensity (a.u.)
GTGGTGGTGAGGGCGCAGTTGCGGGTGACGTCGTCGAAGACGGAGTCACCTAGTGCAG	8080 fluorescence intensity (a.u.)
ATGCTGACCTTTTGTTTTGCTTCACTACACTCGCAACAAACGGAGTCACCTAGTGCAG	8650 fluorescence intensity (a.u.)
CACCACACACCACGCCACTCGCCTCGCCTCGCACAGTCGCCGGAGTCACCTAGTGCAG	9430 fluorescence intensity (a.u.)
TAGTTTTTTTAGTGCCTGAACATCCTATATAATATCCGATCGGAGTCACCTAGTGCAG	8070 fluorescence intensity (a.u.)

Sequence	binding signal
TTTTACATGTTTTTTAGATTTTTTTTATTTTTCGTCTTTTCGGAGTCACCTAGTGCAG	11200 fluorescence intensity (a.u.)
GCCAACCATTCCAACCATGTCAGCCACCCAATAAATATTTCGGAGTCACCTAGTGCAG	8920 fluorescence intensity (a.u.)
ATCATTTTCTACTAGTTGCGTTTGACCGAGGGACTAAGAGCGGAGTCACCTAGTGCAG	9590 fluorescence intensity (a.u.)
GTATCTGTATCTACGTATTTAAGTCTGTCTTTACATACCTCGGAGTCACCTAGTGCAG	9830 fluorescence intensity (a.u.)
GCTGACGGCTCACGTCTTCTTTTTCTTTTTTCGAACGACTCGGAGTCACCTAGTGCAG	8820 fluorescence intensity (a.u.)
GTAGCTGTCCCCATCTCTACAATATCCAGCACCCAGCAAACGGAGTCACCTAGTGCAG	8080 fluorescence intensity (a.u.)
CGCCCGTCGTTTGCCTATCTACTACCCGTGGTAGCCTCCACGGAGTCACCTAGTGCAG	8260 fluorescence intensity (a.u.)
CTTTGGACCACCCAACACACTTATTCATCTACATCCAACACGGAGTCACCTAGTGCAG	9210 fluorescence intensity (a.u.)
ATGGACATTTAACCTCTCGTGTGCCCTCACTAACCACGCGCGGAGTCACCTAGTGCAG	8430 fluorescence intensity (a.u.)
CTATTACTTACCATTTCTGGCCCTATTGTCCCATATTTCCCGGAGTCACCTAGTGCAG	14800 fluorescence intensity (a.u.)
CTTCCCCATCCAATTTTTTAGTCTTATTGCCGTTGTTTCGCGGAGTCACCTAGTGCAG	9260 fluorescence intensity (a.u.)
GCAGGGACAAGTTCTTTTGTTTATTAATTTAAATATGTTACGGAGTCACCTAGTGCAG	9250 fluorescence intensity (a.u.)
CGGTCGCTGAATTTTTCCTTCCCGGTTTCCATTGACCTTGCGGAGTCACCTAGTGCAG	9490 fluorescence intensity (a.u.)
GATTCTTGGGTTTTTCCCTTTCCGCAGCTTTCCGCGCACGCGGAGTCACCTAGTGCAG	9650 fluorescence intensity (a.u.)
CACGCCGACGACCCGCGCACACGCCGGCTTCTTCGTCCTCCGGAGTCACCTAGTGCAG	9140 fluorescence intensity (a.u.)
CCTGTGACCCCTTCTCTCATTTCTCTCCCACGCAAGTTCTCGGAGTCACCTAGTGCAG	8660 fluorescence intensity (a.u.)
CCTCTGCTTTCCTCTCACCCCACCGCGCCACCGGCGAGCGCGGAGTCACCTAGTGCAG	8400 fluorescence intensity (a.u.)
TCCAATTGAGGTTGCTGGCACCAATCCTGTTTGCCTATTCCGGAGTCACCTAGTGCAG	10400 fluorescence intensity (a.u.)
CGCACTCCTCTCCCGCGCTCATCCGTTCGTCTGTCGTCTGCGGAGTCACCTAGTGCAG	10600 fluorescence intensity (a.u.)
GCTTCACTTCCAAAATGTTCATGCACTTTCCCACCGCATGCGGAGTCACCTAGTGCAG	9340 fluorescence intensity (a.u.)
CTTCTTTACACAGTTCGTTCACTTCAAAGCATTTGCACATCGGAGTCACCTAGTGCAG	9560 fluorescence intensity (a.u.)
TACCCACACACACACAAGAACACGCGCCACATTTGTCATTCGGAGTCACCTAGTGCAG	10900 fluorescence intensity (a.u.)
ATATATACCAATGATTGTGTCGACATTATATTGCACACTACGGAGTCACCTAGTGCAG	8290 fluorescence intensity (a.u.)
AAACCTACTCTATTCATCATGCGCTAATGGCCTAATTCGTCGGAGTCACCTAGTGCAG	10700 fluorescence intensity (a.u.)
CTCCGCCCTCCGCCGCCTCCGTTGCCAACCGCCACCGTCCCGGAGTCACCTAGTGCAG	8510 fluorescence intensity (a.u.)
GTGGGAATGCAGTTTTGCTATCAATTGTTTGTCTTTTTACCGGAGTCACCTAGTGCAG	8340 fluorescence intensity (a.u.)
CTGCTGCGCCTGTCTCATGTTTATGCTCCTTACTAAAACGCGGAGTCACCTAGTGCAG	8400 fluorescence intensity (a.u.)

At a glance, part of the list above.
Sequence	binding signal
TCCAATTGAGGTTGCTGGCACCAATCCTGTTTGCCTATTCCGGAGTCACCTAGTGCAG	10400 fluorescence intensity (a.u.)
CGCACTCCTCTCCCGCGCTCATCCGTTCGTCTGTCGTCTGCGGAGTCACCTAGTGCAG	10600 fluorescence intensity (a.u.)
GCTTCACTTCCAAAATGTTCATGCACTTTCCCACCGCATGCGGAGTCACCTAGTGCAG	9340 fluorescence intensity (a.u.)
CTTCTTTACACAGTTCGTTCACTTCAAAGCATTTGCACATCGGAGTCACCTAGTGCAG	9560 fluorescence intensity (a.u.)
TACCCACACACACACAAGAACACGCGCCACATTTGTCATTCGGAGTCACCTAGTGCAG	10900 fluorescence intensity (a.u.)
ATATATACCAATGATTGTGTCGACATTATATTGCACACTACGGAGTCACCTAGTGCAG	8290 fluorescence intensity (a.u.)
AAACCTACTCTATTCATCATGCGCTAATGGCCTAATTCGTCGGAGTCACCTAGTGCAG	10700 fluorescence intensity (a.u.)
CTCCGCCCTCCGCCGCCTCCGTTGCCAACCGCCACCGTCCCGGAGTCACCTAGTGCAG	8510 fluorescence intensity (a.u.)
GTGGGAATGCAGTTTTGCTATCAATTGTTTGTCTTTTTACCGGAGTCACCTAGTGCAG	8340 fluorescence intensity (a.u.)
CTGCTGCGCCTGTCTCATGTTTATGCTCCTTACTAAAACGCGGAGTCACCTAGTGCAG	8400 fluorescence intensity (a.u.)
